The list shows a part of the results. Values are raw readings; no control value is given beside them.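 First-pass screen: polymyxin B was added at a level that permeabilizes the Salmonella outer membrane while sparing the inner membrane. DMSO wells, with and without polymyxin B, defined maximum growth. Because plates differed from one another, each plate's data were ranked separately and the compounds with the lowest OD600 were carried forward as hits.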
Tested on: Salmonella enterica serovar Typhimurium SL1344
Test: bacterial growth OD600 after 18 h with compound and polymyxin B; higher = more bacterial growth (less inhibition)
Conditions: 50 µM, Mueller-Hinton broth

SMILES | bacterial growth OD600 (polymyxin B 1 µg/mL) | bacterial growth OD600 (polymyxin B 0.75 µg/mL)
O=C(Nc1ccccc1Oc1cccnc1)C1CCCN(C(=O)c2cc(F)ccc2F)C1 (stereo not given) | 1.04 | 
CO[C@H]1[C@H](NC(=O)c2ccccn2)c2ccccc2C12CCN(C(=O)COc1ccccc1)CC2 |  | 0.833
C=CCCC(=O)N1CCC(N2CCCC(C(=O)NC3CC3)C2)CC1 (stereo not given) |  | 0.808
Cc1oc(-c2ccc(NC(=O)Cc3ccccc3)cc2)nc1CNC(=O)Cc1ccsc1 |  | 0.945
Cc1ccc2c(c1)CN(CC(=O)NC1CCCC1)CC(c1ccsc1)O2 (stereo not given) |  | 0.02
CCCc1cc(C(=O)N2CCc3c(cnc(C)c3CNC(=O)c3ccc4c(c3)OCO4)C2)n(C)n1 |  | 0.791
COc1cc(-c2nc(CN(C)C(C)c3ccon3)c(C)o2)ccc1F (stereo not given) | 0.843 | 
Cc1nn(C)cc1CN(C)C(=O)CC(c1ccccc1)c1ccccc1F (stereo not given) | 1.22 | 
CCOC(=O)C1(CCOc2ccccc2)CCN(C(=O)Cn2nc3ccccc3n2)CC1 | 0.633 | 
Cc1c(CN2CCN(Cc3ccccc3F)C(CCO)C2)[nH]c2ccccc12 (stereo not given) | 0.873 | 
O=C(c1cn(CC2CCCO2)nn1)N1CCC(CCc2ccccc2)CC1 (stereo not given) | 0.791 | 
COc1cccc(CN2C[C@@H]3C[C@@H](c4ccc(C)o4)N4CCC[C@@]34C2=O)c1 |  | 0.692
CCOC(=O)C1(CCOc2ccccc2)CCCN(CCO)C1 (stereo not given) | 0.975 | 
Cc1oc(-c2cccc(NC(=O)c3ccccn3)c2)nc1CNC(=O)Cc1ccccc1Cl |  | 0.574
Cc1cccc(C(=O)N2CCOc3ccc(CN4CCC(OCc5ccccc5)CC4)cc3C2)n1 |  | 0.854
O=C(COc1ccccc1)Nc1ccc(N2CCC(NCCn3ccc4ccccc43)CC2)cc1 |  | 0.803
COCCNC(=O)c1ccc(OC)cc1OC1CCN(Cc2cnn(C(C)C)c2)CC1 | 1.2 | 
CCOc1ccccc1CN1CC[C@@H](N2CCC(O)CC2)[C@H](O)C1 |  | 0.976
O=C(Cc1ccc(N2CCC(NC3Cc4ccccc4C3)CC2)cc1)NCCc1cccc(F)c1 |  | 0.78
COc1ccccc1CN(C)C(=O)c1coc(COc2cccc3cccnc23)n1 | 0.908 | 
COc1ccccc1CN1C[C@@H]2C[C@@H](c3ccc(C)c(C)c3)N3CCC[C@@]23C1=O |  | 0.015
COc1ccc(C(CC(=O)N(C)Cc2cccnc2)c2ccccc2)cc1 (stereo not given) | 0.62 | 
Cc1cc(-c2cnnc(N3CCN(C4CCc5ccccc5C4)CC3)n2)c(C)o1 (stereo not given) |  | 0.769
CCOC(=O)N1CCN(C(=O)c2cc(COc3ccc4sc(C)nc4c3)on2)CC1 |  | 0.804
COc1ccc(OC2CCN(C3CCCC3)CC2)c(C(=O)N2CCCCCCC2)c1 | 0.979 | 
CCN(CC)C(=O)C1CCCN(Cc2ccc3c(c2)CN(Cc2ccc(OC)cc2OC)CCO3)C1 (stereo not given) |  | 0.982
COCC1CCN(C(=O)C2CCN(c3nc(C)c4ccccc4n3)CC2)CC1 |  | 0.834
CCN(CC)C(=O)Cn1cc(C(=O)N2CCCC(COc3cccc(F)c3)C2)nn1 (stereo not given) | 0.741 | 
Cc1ccc2c(C)nc(N3CCCC(C(=O)NCC(C)(C)CO)C3)nc2c1 (stereo not given) |  | 0.822
CCN1C(=O)CC(CC(=O)N2CCCCC2COC)(c2cccc(C(F)(F)F)c2)C1=O (stereo not given) |  | 0.771

Five neighbouring entries out of the list so far:
SMILES | bacterial growth OD600 (polymyxin B 1 µg/mL) | bacterial growth OD600 (polymyxin B 0.75 µg/mL)
Cc1cccc(C(=O)N2CCOc3ccc(CN4CCC(OCc5ccccc5)CC4)cc3C2)n1 |  | 0.854
O=C(COc1ccccc1)Nc1ccc(N2CCC(NCCn3ccc4ccccc43)CC2)cc1 |  | 0.803
COCCNC(=O)c1ccc(OC)cc1OC1CCN(Cc2cnn(C(C)C)c2)CC1 | 1.2 | 
CCOc1ccccc1CN1CC[C@@H](N2CCC(O)CC2)[C@H](O)C1 |  | 0.976
O=C(Cc1ccc(N2CCC(NC3Cc4ccccc4C3)CC2)cc1)NCCc1cccc(F)c1 |  | 0.78

From the supplement of paper PMC12889115
